No constants are given. Whether binding was seen depends on the method and setting. In cells and extracts the contact can be indirect. A result given as binding can be weak or reduced; the word gives no strength.
Target: His-tagged GlnZ (A. brasilense) (UniProt P70731)
Assay: pull-down; 20 μg purified His-GlnZ immobilised on magnetic Ni2+ beads (MagneHis), mixed with E. coli cell extract overexpressing the recombinant protein (100 μl in Fig. S1); 50 mM Tris-HCl pH 8, 0.1 M NaCl, 10% glycerol, 20 mM imidazole, 5 mM MgCl2, with 1 mM ADP, 1 mM ATP or 1 mM ATP + 1.5 mM 2-OG; SDS-PAGE, Coomassie; 2-OG reduced copurification; only the target purified

By UniProt entry, the sequences of proteins in these tests, tags left out. Where a name states a change or a piece, a line headed by the entry shows the natural chain unless it says otherwise.
UniProt P70731: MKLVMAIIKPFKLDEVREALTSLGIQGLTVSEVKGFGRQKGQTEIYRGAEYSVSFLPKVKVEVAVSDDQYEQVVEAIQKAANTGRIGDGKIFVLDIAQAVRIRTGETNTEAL
UniProt A0A0N7I7C7: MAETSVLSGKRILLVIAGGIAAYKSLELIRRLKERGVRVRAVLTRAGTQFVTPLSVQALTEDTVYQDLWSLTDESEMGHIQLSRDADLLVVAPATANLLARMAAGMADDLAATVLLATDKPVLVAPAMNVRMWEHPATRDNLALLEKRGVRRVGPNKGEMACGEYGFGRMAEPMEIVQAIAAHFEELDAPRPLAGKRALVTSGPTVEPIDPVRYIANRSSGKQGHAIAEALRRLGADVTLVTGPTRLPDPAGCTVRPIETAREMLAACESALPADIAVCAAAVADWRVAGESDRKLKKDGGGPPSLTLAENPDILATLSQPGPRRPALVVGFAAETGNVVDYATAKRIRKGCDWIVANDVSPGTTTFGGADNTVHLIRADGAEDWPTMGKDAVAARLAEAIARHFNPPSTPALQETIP

CoaBC (G8AF97), recombinant (from UniProt A0A0N7I7C7) (enzyme)
binding: binds weakly
